{"source": "PubChem BioAssay AID743454 (Peter MacCallum Cancer Centre, 2014)", "screen": "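Knock-downs lowering viability or raising caspase 3/7 activity in vorinostat-treated resistant cells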 (primary screen)", "cell system": "human HCT116-VR colon cancer cells, selected for vorinostat resistance", "reagents": "siRNA pool against human genes, 40 nM siRNA pool", "timing": "vorinostat for 24 h, read-out about 72 h after transfection", "treatment": "vorinostat at 2.5 µM final", "measurement": "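Two measures, CellTiter-Fluor viability and luminescent caspase 3/7 activity, each as fold change against same-plate mock wells, mean of duplicates, then screen-wide robust z-score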", "scale": "viability robust z-score: higher = more viable cells than screen typical; caspase robust z-score: higher = more caspase 3/7 activity than screen typical", "call rule": "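Hits are knock-downs in viability class RV1/RV2 or caspase class CA1/CA2, excluding ones that killed cells in the no-drug cell-count arm; hits then retested with single siRNAs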", "note": "Here is a random part of about 18,000 deposited reagents. Of all reagents, 450 (2.5%) were called active. 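Single biological run; no consistent viability z cut-off exists, so the class columns, not z-scores, define the calls.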 Unmarked entries are inactive."}
{"gene symbol": "TNNI1", "viability hit class": "no change", "caspase hit class": "no change", "viability robust z-score": 0.21, "caspase robust z-score": -0.84}
{"gene symbol": "OR52L1", "viability hit class": "no change", "caspase hit class": "no change", "viability robust z-score": 0.37, "caspase robust z-score": 0.3}
{"gene symbol": "CES2", "viability hit class": "no change", "caspase hit class": "no change", "viability robust z-score": 0.86, "caspase robust z-score": -0.7}
{"gene symbol": "STING1", "viability hit class": "no change", "caspase hit class": "no change", "viability robust z-score": 0.62, "caspase robust z-score": 2.08}
{"gene symbol": "PEX10", "viability hit class": "no change", "caspase hit class": "no change", "viability robust z-score": 0.55, "caspase robust z-score": -0.63}
{"gene symbol": "PAX6", "viability hit class": "no change", "caspase hit class": "no change", "viability robust z-score": -0.4, "caspase robust z-score": -0.1}
{"gene symbol": "RAF1", "viability hit class": "no change", "caspase hit class": "no change", "viability robust z-score": -0.88, "caspase robust z-score": 0.8}

Next part (2 carried over from the part before).
{"gene symbol": "PAX6", "viability hit class": "no change", "caspase hit class": "no change", "viability robust z-score": -0.4, "caspase robust z-score": -0.1}
{"gene symbol": "RAF1", "viability hit class": "no change", "caspase hit class": "no change", "viability robust z-score": -0.88, "caspase robust z-score": 0.8}
{"gene symbol": "RBM3", "viability hit class": "no change", "caspase hit class": "no change", "viability robust z-score": -2, "caspase robust z-score": -0.08}
{"gene symbol": "ZNF761", "viability hit class": "no change", "caspase hit class": "no change", "viability robust z-score": -0.88, "caspase robust z-score": -1.02}
{"gene symbol": "STYK1", "viability hit class": "no change", "caspase hit class": "no change", "viability robust z-score": -1.11, "caspase robust z-score": 1.08}
{"gene symbol": "PSMD10", "viability hit class": "no change", "caspase hit class": "no change", "viability robust z-score": -0.14, "caspase robust z-score": 3.72}
{"gene symbol": "FAHD1", "viability hit class": "no change", "caspase hit class": "no change", "viability robust z-score": 0.57, "caspase robust z-score": -1.48}
